Results from article PMC7819943, “Rice protein-binding microarrays: a tool to detect cis-acting elements near promoter regions in rice”.
This is one part of the list.

The sequences below were run against T1, OsSMF1 (Oryza sativa, UniProt Q6ZLB0 1-436) (assay: protein-binding microarray (RPBM); PBS, 2% BSA, 51.3 ng/ul salmon testes DNA, 50 uM zinc acetate, 200 nM TF, 25 C, 1 h; high values mean tight binding). Conditions: protein: recombinant; tags: N-terminal polyhistidine and DsRed monomer fusion (pET32a); chain copies: 2; label: CyDye5-dUTP incorporated in the synthesized complementary strand; 3' TTTTT single-stranded linker to array surface; dsDNA, one strand shown.
T1 sequence: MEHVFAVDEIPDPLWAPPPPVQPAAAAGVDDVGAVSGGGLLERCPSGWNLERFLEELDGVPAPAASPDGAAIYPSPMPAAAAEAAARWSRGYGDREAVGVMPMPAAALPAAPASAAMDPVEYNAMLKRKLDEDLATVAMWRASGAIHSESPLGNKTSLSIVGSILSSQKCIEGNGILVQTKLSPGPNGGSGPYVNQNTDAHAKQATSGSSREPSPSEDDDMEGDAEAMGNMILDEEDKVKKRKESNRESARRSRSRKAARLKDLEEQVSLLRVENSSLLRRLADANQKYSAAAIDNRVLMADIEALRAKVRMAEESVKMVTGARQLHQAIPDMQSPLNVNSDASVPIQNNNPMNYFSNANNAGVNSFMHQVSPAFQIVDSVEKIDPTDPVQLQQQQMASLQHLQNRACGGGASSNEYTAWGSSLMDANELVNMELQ
Outline: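 Transcription factors were each fused at the N-terminus to a polyhistidine tag plus DsRed and expressed in E. coli BL21-CodonPlus before Ni–NTA purification. Binding to a double-stranded custom Agilent array was carried out with 200 nM protein at 25 °C for 1 h in PBS, 2% BSA, salmon testes DNA and 50 µM zinc acetate. The binding signal is per-feature fluorescence intensity, in arbitrary units, on an Axon 4000B scanner.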

Compared with “AGTATGCTTTTCAAACCGCTAAATGGTACATTTCATGCAACGGAGTCACCTAGTGCAG”, “GCATGCACAGTTGATTTTCTTTGATTGATTTGTTTGCACTCGGAGTCACCTAGTGCAG” is higher in binding signal: 4720 fluorescence intensity (a.u.) for the first, 12900 fluorescence intensity (a.u.) for the second.

Going from “GTGGTACGGTACACATCTTGCGTGCGTCACACCTTATCCACGGAGTCACCTAGTGCAG” to “AACGGAACACATGTTGTTGTAGTACGTCATTGAGATTGAGCGGAGTCACCTAGTGCAG”, the binding signal falls from 6120 fluorescence intensity (a.u.) to 5920 fluorescence intensity (a.u.).

Compared with “TGCTATAGGGGCTGGGGTGGCAGGCAGCGCACGGATCTGCCGGAGTCACCTAGTGCAG”, “CCCACGATAAAATTTTCATGATACAGTTATCCTGTCACGACGGAGTCACCTAGTGCAG” is higher in binding signal: 3340 fluorescence intensity (a.u.) for the first, 4000 fluorescence intensity (a.u.) for the second.

First: TCCATAAACGTTTTATCACATGTGCATCTATTTTGCCATGCGGAGTCACCTAGTGCAG
Second: ATCCCTTTGCCTAGTCAGGCTTCAACTCGATAGTCTTCTCCGGAGTCACCTAGTGCAG
The binding signal of the first is lower: 3390 fluorescence intensity (a.u.) for the first, 4900 fluorescence intensity (a.u.) for the second.

Going from “GGGTAGGGTGTACGTGTGTGCGTTTATAGGGGTGAGTGTGCGGAGTCACCTAGTGCAG” to “TACATAGCCTCAAATTATGTGACACGGTGCCAATGTGCCACGGAGTCACCTAGTGCAG”, the binding signal rises from 3640 fluorescence intensity (a.u.) to 5620 fluorescence intensity (a.u.).

First: AAGTGGCTTCAGATCAGCGTAGTAGTTGTAAGGGTATCCTCGGAGTCACCTAGTGCAG
Second: TACAACTGTACAAAATTACGCCGTATCTTTCCCTTGTCTGCGGAGTCACCTAGTGCAG
The binding signal of the first is higher: 3710 fluorescence intensity (a.u.) for the first, 3300 fluorescence intensity (a.u.) for the second.

Compared with “CTCCCTTTTGATGAGTAGGATGATCCACTCGACTCTAAGCCGGAGTCACCTAGTGCAG”, “GTCGCCGCCAATGGCCTCCTGACAAGGCCTCGTCTCGGTTCGGAGTCACCTAGTGCAG” is lower in binding signal: 3810 fluorescence intensity (a.u.) for the first, 3540 fluorescence intensity (a.u.) for the second.

Going from “GCCTCCACCTCGCTGCTGCTCCGCCAGCTAGTAGCCGCCACGGAGTCACCTAGTGCAG” to “GCTAGGGTGTGACATCCTTGCCCAGGGCTTAATAGGATTACGGAGTCACCTAGTGCAG”, the binding signal rises from 3350 fluorescence intensity (a.u.) to 3610 fluorescence intensity (a.u.).

Going from “CATCCATCCCGCGAGCGAGCAGGGCGCCGTCGTTCGTCCTCGGAGTCACCTAGTGCAG” to “GCGTGGTCCCACCTGCCATACCTACCCCGGCGAGGCGAGTCGGAGTCACCTAGTGCAG”, the binding signal falls from 3590 fluorescence intensity (a.u.) to 3390 fluorescence intensity (a.u.).

Compared with “CTTAATAACTTTCTCGGATTTAATGTGTGACTCACCATTCCGGAGTCACCTAGTGCAG”, “TTAATGACATATAGGACCCACATGAGTCAATGATGTGTGGCGGAGTCACCTAGTGCAG” is lower in binding signal: 13700 fluorescence intensity (a.u.) for the first, 3530 fluorescence intensity (a.u.) for the second.

First: TGCTGTCACTGATCACTGGTGACTGCATCTAACTCTACTACGGAGTCACCTAGTGCAG
Second: GATGGGTTGCGACCCAGGGCAAGTCTGGTACGTGTGCACGCGGAGTCACCTAGTGCAG
The binding signal of the first is lower: 3530 fluorescence intensity (a.u.) for the first, 3570 fluorescence intensity (a.u.) for the second.

Compared with “ATCTCGCCCTCTCTGGACCATCACACCTACCCTGAAATCCCGGAGTCACCTAGTGCAG”, “AACGTATGCTTGGTTGAGTTTTAATTATTACACACTTCAACGGAGTCACCTAGTGCAG” is higher in binding signal: 3140 fluorescence intensity (a.u.) for the first, 3800 fluorescence intensity (a.u.) for the second.

Compared with “GTTTGGGCACACTGACTGACTGGCGGGCCCCACGTGTCAGCGGAGTCACCTAGTGCAG”, “AATCTGCCGTACTAAAATAAATAGAAAATATTTTATGGACCGGAGTCACCTAGTGCAG” is higher in binding signal: 5930 fluorescence intensity (a.u.) for the first, 17600 fluorescence intensity (a.u.) for the second.

Compared with “AACTTAAGTAGTGGATTGAACCTTACGTGGTACTGTACTACGGAGTCACCTAGTGCAG”, “AATTCCCATTTCCGTCACGACTCTGACTGCCCTCGCTAATCGGAGTCACCTAGTGCAG” is lower in binding signal: 3790 fluorescence intensity (a.u.) for the first, 3320 fluorescence intensity (a.u.) for the second.

Compared with “GCTAAAGTTTAGCAGGGCTGGGACGTCAGCGCCATGCTAACGGAGTCACCTAGTGCAG”, “CTTTCTCGGTTGCTGCTCGGCTCGCGTGTCGCATATGACGCGGAGTCACCTAGTGCAG” is higher in binding signal: 3730 fluorescence intensity (a.u.) for the first, 3830 fluorescence intensity (a.u.) for the second.

Compared with “CAAGACACGTACCGCATCTGGATAATGCCACCGGCAAGACCGGAGTCACCTAGTGCAG”, “GCTTCGTCGACCACCTCCTCATCGTGGCGCTCGACGACGGCGGAGTCACCTAGTGCAG” is higher in binding signal: 3340 fluorescence intensity (a.u.) for the first, 3560 fluorescence intensity (a.u.) for the second.

Going from “GCCGCCGCCTCATATCCCTCGTGACCTCGTCGCCGATCACCGGAGTCACCTAGTGCAG” to “CCGTTAACACTAGTTGTTTCATATGTGATAGCGATATGTTCGGAGTCACCTAGTGCAG”, the binding signal rises from 6270 fluorescence intensity (a.u.) to 21000 fluorescence intensity (a.u.).

Going from “AACCGAGCTCCGCAGCGAAGAGGAGTGTGGGGTTGAGGAACGGAGTCACCTAGTGCAG” to “TTAAGTGATCAAATTAAGTTATCTCCTGATGACTTTGCAACGGAGTCACCTAGTGCAG”, the binding signal rises from 3240 fluorescence intensity (a.u.) to 9120 fluorescence intensity (a.u.).

Going from “TTCCTCACCGGCCACGCCTCTCTCGCCACGCCTCTTCTCCCGGAGTCACCTAGTGCAG” to “TATATAAGAGACCTCACCTCCAAGAATCTCCAGAGAGAGACGGAGTCACCTAGTGCAG”, the binding signal rises from 3760 fluorescence intensity (a.u.) to 22900 fluorescence intensity (a.u.).

Going from “GGTGGCGGGCGGAGGCGGGAGGGAGGTGACATGGATGGTCCGGAGTCACCTAGTGCAG” to “CGCCGACGAGCCATGGACTCCTGCATCGAAGCACTGCCACCGGAGTCACCTAGTGCAG”, the binding signal rises from 8100 fluorescence intensity (a.u.) to 11000 fluorescence intensity (a.u.).

Compared with “CGCCCCGCTGTAATCTCGTACCGCGTCATCTCGCGGAGACCGGAGTCACCTAGTGCAG”, “TGAAACCTTATGTAGTTATGCAACGTAAGAACCTGTTCGGCGGAGTCACCTAGTGCAG” is lower in binding signal: 5650 fluorescence intensity (a.u.) for the first, 3260 fluorescence intensity (a.u.) for the second.
